In article PMC5008018:
No constants are given. Whether binding was seen depends on the method and setting. In cells and extracts the contact can be indirect. Some entries that bind do so weakly or less than the wild type. Where a sequence is shown, tags or fusion partners need not be part of it.

Experiments:
[1] = biological target: HA-tagged human parkin, wild type, full length (human) (UniProt O60260); assay: co-IP; HEK293 cells transfected with HA-parkin-WT or HA-parkin-2KR and FLAG-HERC5, all samples also with UBE1L and Myc-UbcH8; lysate immunoprecipitated with anti-HA, blotted with anti-HERC5 or anti-HA
[2] = biological target: HA-tagged parkin-K349R/K369R mutant (2KR) (human) (UniProt O60260); assay: as above
[3] = biological target: HA-tagged human parkin, wild type, full length (human) (UniProt O60260); assay: co-IP; HEK293 cells co-transfected with HA-parkin, FLAG-HERC5 (WT or C994A), FLAG-ISG15-WT, UBE1L and Myc-UbcH8; lysate in 1% Nonidet P-40 buffer (50 mM Tris pH 7.4, 150 mM NaCl, 10% glycerol); immunoprecipitated with anti-HA overnight at 4°C, blotted with anti-HERC5, anti-HA or anti-FLAG

binding [1]: binds
binding [2]: binds
binding [3]: binds
B1: FLAG-tagged wild-type HERC5 (enzyme, UniProt Q9UII4 1-1024)
chain: MERRSRRKSRRNGRSTAGKAAATQPAKSPGAQLWLFPSAAGLHRALLRRVEVTRQLCCSPGRLAVLERGGAGVQVHQLLAGSGGARTPKCIKLGKNMKIHSVDQGAEHMLILSSDGKPFEYDNYSMKHLRFESILQEKKIIQITCGDYHSLALSKGGELFAWGQNLHGQLGVGRKFPSTTTPQIVEHLAGVPLAQISAGEAHSMALSMSGNIYSWGKNECGQLGLGHTESKDDPSLIEGLDNQKVEFVACGGSHSALLTQDGLLFTFGAGKHGQLGHNSTQNELRPCLVAELVGYRVTQIACGRWHTLAYVSDLGKVFSFGSGKDGQLGNGGTRDQLMPLPVKVSSSEELKLESHTSEKELIMIAGGNQSILLWIKKENSYVNLKRTIPTLNEGTVKRWIADVETKRWQSTKREIQEIFSSPACLTGSFLRKRRTTEMMPVYLDLNKARNIFKELTQKDWITNMITTCLKDNLLKRLPFHSPPQEALEIFFLLPECPMMHISNNWESLVVPFAKVVCKMSDQSSLVLEEYWATLQESTFSKLVQMFKTAVICQLDYWDESAEENGNVQALLEMLKKLHRVNQVKCQLPESIFQVDELLHRLNFFVEVCRRYLWKMTVDASENVQCCVIFSHFPFIFNNLSKIKLLHTDTLLKIESKKHKAYLRSAAIEEERESEFALRPTFDLTVRRNHLIEDVLNQLSQFENEDLRKELWVSFSGEIGYDLGGVKKEFFYCLFAEMIQPEYGMFMYPEGASCMWFPVKPKFEKKRYFFFGVLCGLSLFNCNVANLPFPLALFKKLLDQMPSLEDLKELSPDLGKNLQTLLDDEGDNFEEVFYIHFNVHWDRNDTNLIPNGSSITVNQTNKRDYVSKYINYIFNDSVKAVYEEFRRGFYKMCDEDIIKLFHPEELKDVIVGNTDYDWKTFEKNARYEPGYNSSHPTIVMFWKAFHKLTLEEKKKFLVFLTGTDRLQMKDLNNMKITFCCPESWNERDPIRALTCFSVLFLPKYSTMETVEEALQEAINNNRGFG
